Reference: article doi:10.1101/2023.10.26.562393
Positions count from the first letter of the chain named. In names and notes the source's numbering stands. Like-named read-outs stand apart in the source and are kept apart here. No constants are given. Whether binding was seen depends on the method and setting. Binding seen in cells or lysates may run through a third protein. Some binding calls cover weakened binding; strength is not graded here. For some assays here: Sequences can lack the tags named with a protein.

Chains of the proteins cited; added tags and fusions are not shown. Lines headed by an entry give the natural chain unless they say otherwise; changes in a name come on top.
UniProt Q9UQ84, whole entry: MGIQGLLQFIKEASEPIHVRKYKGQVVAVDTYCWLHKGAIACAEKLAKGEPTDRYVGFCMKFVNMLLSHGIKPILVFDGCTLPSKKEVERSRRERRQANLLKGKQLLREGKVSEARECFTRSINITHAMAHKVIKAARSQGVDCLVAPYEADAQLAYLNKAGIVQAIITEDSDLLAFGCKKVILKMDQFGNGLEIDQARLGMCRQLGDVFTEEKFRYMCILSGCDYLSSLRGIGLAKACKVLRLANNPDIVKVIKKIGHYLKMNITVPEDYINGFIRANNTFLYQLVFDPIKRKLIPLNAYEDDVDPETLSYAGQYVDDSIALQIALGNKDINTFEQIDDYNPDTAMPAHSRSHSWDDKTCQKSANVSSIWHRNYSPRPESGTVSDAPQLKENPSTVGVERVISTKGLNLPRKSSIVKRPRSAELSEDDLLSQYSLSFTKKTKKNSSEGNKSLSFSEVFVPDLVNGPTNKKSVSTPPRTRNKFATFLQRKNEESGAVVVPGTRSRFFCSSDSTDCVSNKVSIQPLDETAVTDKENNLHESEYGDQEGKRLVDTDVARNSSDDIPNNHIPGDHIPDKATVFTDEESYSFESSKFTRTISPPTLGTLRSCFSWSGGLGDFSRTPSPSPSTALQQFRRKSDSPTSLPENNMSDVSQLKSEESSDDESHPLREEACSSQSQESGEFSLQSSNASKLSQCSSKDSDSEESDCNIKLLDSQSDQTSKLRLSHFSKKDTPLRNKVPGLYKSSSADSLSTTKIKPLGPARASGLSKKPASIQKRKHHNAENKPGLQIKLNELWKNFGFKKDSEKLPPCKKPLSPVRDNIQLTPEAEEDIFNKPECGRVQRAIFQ
UniProt P63208, whole entry: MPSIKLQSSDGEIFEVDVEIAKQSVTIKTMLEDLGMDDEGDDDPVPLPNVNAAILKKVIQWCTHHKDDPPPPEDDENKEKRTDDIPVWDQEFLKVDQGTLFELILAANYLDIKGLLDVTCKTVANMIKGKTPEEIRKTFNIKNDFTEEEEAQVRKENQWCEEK

Key:
GFP-cyclin F wild type [1] = biological target: T1, GFP-cyclin F wild type (UniProt P41002); test: co-IP
T1 sequence: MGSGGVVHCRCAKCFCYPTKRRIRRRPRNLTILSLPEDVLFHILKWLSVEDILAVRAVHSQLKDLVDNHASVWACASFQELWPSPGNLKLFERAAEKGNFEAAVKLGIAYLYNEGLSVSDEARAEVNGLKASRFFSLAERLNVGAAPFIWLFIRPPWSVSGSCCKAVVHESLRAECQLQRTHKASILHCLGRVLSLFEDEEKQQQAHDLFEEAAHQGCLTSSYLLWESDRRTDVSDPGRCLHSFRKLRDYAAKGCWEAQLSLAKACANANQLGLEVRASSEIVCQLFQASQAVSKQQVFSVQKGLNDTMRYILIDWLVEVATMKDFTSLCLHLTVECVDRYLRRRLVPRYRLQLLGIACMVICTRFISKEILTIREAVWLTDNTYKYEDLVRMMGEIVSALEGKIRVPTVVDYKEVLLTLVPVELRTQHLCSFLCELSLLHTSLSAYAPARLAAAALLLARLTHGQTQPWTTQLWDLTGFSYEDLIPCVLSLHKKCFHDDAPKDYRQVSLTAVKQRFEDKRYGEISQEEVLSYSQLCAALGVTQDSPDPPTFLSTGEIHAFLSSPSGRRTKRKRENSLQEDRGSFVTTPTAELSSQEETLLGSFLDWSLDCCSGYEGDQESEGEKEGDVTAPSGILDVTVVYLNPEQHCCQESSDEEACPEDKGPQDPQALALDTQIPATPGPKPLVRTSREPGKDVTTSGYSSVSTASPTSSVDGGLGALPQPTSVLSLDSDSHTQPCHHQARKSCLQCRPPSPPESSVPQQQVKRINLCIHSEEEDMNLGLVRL

[2] = biological target: T2, biotin-tagged EXO1 peptide encompassing the last 15 amino acid residues; test: pull-down
T2 sequence (peptide, biotin (biotin-tagged; end not stated)): FNKPECGRVQRAIFQ

HA-EXO1 WT = HA-EXO1 WT (UniProt Q9UQ84); test: co-IP
GFP-cyclin F wild type [3] = biological target: T1, GFP-cyclin F wild type; test: co-IP; remark: listed apart in the source
Flag-EXO1 = Flag-EXO1 (UniProt Q9UQ84); test: co-IP

For “SKP1 (HEK293T) (from UniProt P63208 1-163)”, which binding (GFP-cyclin F wild type [1]) is on record?
Its binding is “binds”.

“endogenous EXO1 (HEK293T) (from UniProt Q9UQ84 1-846)” was tested. Which binding (GFP-cyclin F wild type [1]) did it give?
The binding was “binds”.

B1: cyclin F from cell lysates (peptide pull-down) (protein, UniProt P41002 1-786)
chain: T1 sequence
With B1 as the molecule, how does the binding [2] read?
The binding was “binds”.

B2: cyclin F (LN229) (protein, UniProt P41002 1-786)
chain: T1 sequence
How did the binding (HA-EXO1 WT) turn out when B2 was run?
The binding was “binds”.

B3: RRM2 (HEK293T) (protein, UniProt P31350 1-389)
chain: MLSLRVPLAPITDPQQLQLSPLKGLSLVDKENTPPALSGTRVLASKTARRIFQEPTEPKTKAAAPGVEDEPLLRENPRRFVIFPIEYHDIWQMYKKAEASFWTAEEVDLSKDIQHWESLKPEERYFISHVLAFFAASDGIVNENLVERFSQEVQITEARCFYGFQIAMENIHSEMYSLLIDTYIKDPKEREFLFNAIETMPCVKKKADWALRWIGDKEATYGERVVAFAAVEGIFFSGSFASIFWLKKRGLMPGLTFSNELISRDEGLHCDFACLMFKHLVHKPSEERVREIIINAVRIEQEFLTEALPVKLIGMNCTLMKQYIEFVADRLMLELGFSKVFRVENPFDFMENISLEGKTNFFEKRVGEYQRMGVMSSPTENSFTLDADF
B3 was tested. Which binding (GFP-cyclin F wild type [3]) did it give?
The binding was “binds”.

B4: NEK9 (HEK293T) (protein, UniProt Q8TD19 1-979)
chain: MSVLGEYERHCDSINSDFGSESGGCGDSSPGPSASQGPRAGGGAAEQEELHYIPIRVLGRGAFGEATLYRRTEDDSLVVWKEVDLTRLSEKERRDALNEIVILALLQHDNIIAYYNHFMDNTTLLIELEYCNGGNLYDKILRQKDKLFEEEMVVWYLFQIVSAVSCIHKAGILHRDIKTLNIFLTKANLIKLGDYGLAKKLNSEYSMAETLVGTPYYMSPELCQGVKYNFKSDIWAVGCVIFELLTLKRTFDATNPLNLCVKIVQGIRAMEVDSSQYSLELIQMVHSCLDQDPEQRPTADELLDRPLLRKRRREMEEKVTLLNAPTKRPRSSTVTEAPIAVVTSRTSEVYVWGGGKSTPQKLDVIKSGCSARQVCAGNTHFAVVTVEKELYTWVNMQGGTKLHGQLGHGDKASYRQPKHVEKLQGKAIRQVSCGDDFTVCVTDEGQLYAFGSDYYGCMGVDKVAGPEVLEPMQLNFFLSNPVEQVSCGDNHVVVLTRNKEVYSWGCGEYGRLGLDSEEDYYTPQKVDVPKALIIVAVQCGCDGTFLLTQSGKVLACGLNEFNKLGLNQCMSGIINHEAYHEVPYTTSFTLAKQLSFYKIRTIAPGKTHTAAIDERGRLLTFGCNKCGQLGVGNYKKRLGINLLGGPLGGKQVIRVSCGDEFTIAATDDNHIFAWGNGGNGRLAMTPTERPHGSDICTSWPRPIFGSLHHVPDLSCRGWHTILIVEKVLNSKTIRSNSSGLSIGTVFQSSSPGGGGGGGGGEEEDSQQESETPDPSGGFRGTMEADRGMEGLISPTEAMGNSNGASSSCPGWLRKELENAEFIPMPDSPSPLSAAFSESEKDTLPYEELQGLKVASEAPLEHKPQVEASSPRLNPAVTCAGKGTPLTPPACACSSLQVEVERLQGLVLKCLAEQQKLQQENLQIFTQLQKLNKKLEGGQQVGMHSKGTQTAKEEMEMDPKPDLDSDSWCLLGTDSCRPSL
For B4, which binding (GFP-cyclin F wild type [3]) is on record?
Its binding is “binds”.

B5: GFP-cyclin F wild type (protein, UniProt P41002 1-786)
chain: T1 sequence
How did the binding (Flag-EXO1) turn out when B5 was run?
Its binding is “binds”.

B6: GFP-cyclin F M309A (protein, UniProt P41002 1-786)
chain: T1 sequence with M309A
With B6 as the molecule, how does the binding (Flag-EXO1) read?
The binding was “no binding”.
